In US10383847B2 (priority 2012, dated 2019):

System: human kinases
Assay: competition binding kinase scan, selectivity score
Details: 385 non-mutant kinases, screening concentration 50000 nm

## CN1C(=O)/C(=C2/C(=O)Nc3ccccc32)c2ccccc21 [Meisoindigo, 3-(1,2-dihydro-2-oxo-3H-indol-3-ylidene)-1,3-dihydro-1-methyl-2H-indol-2-one]
S(1): % Ctrl <1
  Number of Hits: 0
S(10): % Ctrl <10
  Number of Hits: 0
S(35): % Ctrl <35
  Number of Hits: 1
